Laboratory results reported in article doi:10.1101/2022.02.08.479616.
No constants are given. Whether binding was seen depends on the method and setting. In cells and extracts the contact can be indirect. Where a sequence is shown, tags or fusion partners need not be part of it.

T1: OR-Like (ORL), split-YFP fusion for BiFC (Arabidopsis thaliana) (UniProt Q8VYD8)
T1 sequence: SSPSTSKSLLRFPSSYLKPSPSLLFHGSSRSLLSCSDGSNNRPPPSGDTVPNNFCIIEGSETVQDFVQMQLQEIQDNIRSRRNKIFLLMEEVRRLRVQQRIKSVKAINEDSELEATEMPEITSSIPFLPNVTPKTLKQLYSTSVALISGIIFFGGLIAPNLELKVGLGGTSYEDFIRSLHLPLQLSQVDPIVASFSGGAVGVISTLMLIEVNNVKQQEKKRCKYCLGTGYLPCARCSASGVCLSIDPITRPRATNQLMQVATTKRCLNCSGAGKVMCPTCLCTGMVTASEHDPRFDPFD

T2: ORANGE (OR), split-YFP fusion for BiFC (Arabidopsis thaliana) (UniProt Q9FKF4)
T2 sequence: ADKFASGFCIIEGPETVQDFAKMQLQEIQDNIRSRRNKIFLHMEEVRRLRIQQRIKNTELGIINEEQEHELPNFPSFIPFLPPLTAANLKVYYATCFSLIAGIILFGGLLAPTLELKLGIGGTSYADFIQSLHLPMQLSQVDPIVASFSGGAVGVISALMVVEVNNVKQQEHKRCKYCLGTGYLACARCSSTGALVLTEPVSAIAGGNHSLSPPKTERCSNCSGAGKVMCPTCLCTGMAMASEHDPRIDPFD

B1: MgPMME cyclase 1 (CRD1), split-YFP fusion for BiFC (protein, UniProt Q9M591 37-409)
chain: MSASSSPPPPTTATSKSKKGTKKEIQESLLTPRFYTTDFEEMEQLFNTEINKNLNEAEFEALLQEFKTDYNQTHFVRNKEFKEAADKLQGPLRQIFVEFLERSCTAEFSGFLLYKELGRRLKKTNPVVAEIFSLMSRDEARHAGFLNKGLSDFNLALDLGFLTKARKYTFFKPKFIFYATYLSEKIGYWRYITIYRHLKENPEFQCYPIFKYFENWCQDENRHGDFFSALMKAQPQFLNDWQAKLWSRFFCLSVYVTMYLNDCQRTNFYEGIGLNTKEFDMHVIIETNRTTARIFPAVLDVENPEFKRKLDRMVVSYEKLLAIGETDDASFIKTLKRIPLVTSLASEILAAYLMPPVESGSVDFAEFEPNLVY
B2: Pchlide oxidoreductase B (PORB), split-YFP fusion for BiFC (protein, UniProt P21218 67-401)
chain: QTAATSSPTVTKSVDGKKTLRKGNVVVTGASSGLGLATAKALAETGKWNVIMACRDFLKAERAAKSVGMPKDSYTVMHLDLASLDSVRQFVDNFRRTETPLDVLVCNAAVYFPTAKEPTYSAEGFELSVATNHLGHFLLARLLLDDLKKSDYPSKRLIIVGSITGNTNTLAGNVPPKANLGDLRGLAGGLNGLNSSAMIDGGDFDGAKAYKDSKVCNMLTMQEFHRRFHEETGVTFASLYPGCIASTGLFREHIPLFRALFPPFQKYITKGYVSETESGKRLAQVVSDPSLTKSGVYWSWNNASASFENQLSEEASDVEKARKVWEISEKLVGLA

Experiments:
[1] = molecular target: T1, OR-Like (ORL), split-YFP fusion for BiFC (Arabidopsis thaliana); assay: split reporter
[2] = molecular target: T2, ORANGE (OR), split-YFP fusion for BiFC (Arabidopsis thaliana); assay: split reporter

Row | binding [1] | binding [2] | Binder
1 | no binding | no binding | B1
2 | no binding | no binding | B2
